The campaign covered roughly 580,000 compounds. About 6,100 (1.1%) were called active. The shares of active, inactive and inconclusive entries below differ from those in the screen. The call rests on the fitted dose curve; in most records, active means well fitted inhibition curve with a large enough effect; inconclusive means small, poorly fitted or top-dose-only effect, or another doubt; inactive means no such curve, though single readings can be large or run the other way. Potencies of inconclusive entries are doubtful fits and often do not repeat.
Biological target: Polyunsaturated fatty acid lipoxygenase ALOX12 (Homo sapiens) (UniProt P18054)
Experiment: Primary qHTS assay for inhibitors of human arachidonate 12S-lipoxygenase (ALOX12): Round 2
Conditions: purified 12hLO, xylenol orange hydroperoxide absorbance; activity change, negative = inhibition: at 108 µM (top of the series) unless noted
In short: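 Purified human 12hLO (150 nM final) in 25 mM Hepes, 0.01% Triton X-100, pH 7.0 was preincubated 15 min at room temperature with compound. Then 40 uM arachidonic acid was added, 30 min. Hydroperoxide was read by Fe-XO absorbance ratio 573/405 nm.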
On the % scale 0 is the no-effect control and ±100 the full control effect; potency means the concentration at half of the fitted maximal effect.

Sequences of proteins named here, by UniProt entry; tags and fusion partners are left off. A change or cut given only in a name is not applied to a line headed by its entry.
UniProt P18054: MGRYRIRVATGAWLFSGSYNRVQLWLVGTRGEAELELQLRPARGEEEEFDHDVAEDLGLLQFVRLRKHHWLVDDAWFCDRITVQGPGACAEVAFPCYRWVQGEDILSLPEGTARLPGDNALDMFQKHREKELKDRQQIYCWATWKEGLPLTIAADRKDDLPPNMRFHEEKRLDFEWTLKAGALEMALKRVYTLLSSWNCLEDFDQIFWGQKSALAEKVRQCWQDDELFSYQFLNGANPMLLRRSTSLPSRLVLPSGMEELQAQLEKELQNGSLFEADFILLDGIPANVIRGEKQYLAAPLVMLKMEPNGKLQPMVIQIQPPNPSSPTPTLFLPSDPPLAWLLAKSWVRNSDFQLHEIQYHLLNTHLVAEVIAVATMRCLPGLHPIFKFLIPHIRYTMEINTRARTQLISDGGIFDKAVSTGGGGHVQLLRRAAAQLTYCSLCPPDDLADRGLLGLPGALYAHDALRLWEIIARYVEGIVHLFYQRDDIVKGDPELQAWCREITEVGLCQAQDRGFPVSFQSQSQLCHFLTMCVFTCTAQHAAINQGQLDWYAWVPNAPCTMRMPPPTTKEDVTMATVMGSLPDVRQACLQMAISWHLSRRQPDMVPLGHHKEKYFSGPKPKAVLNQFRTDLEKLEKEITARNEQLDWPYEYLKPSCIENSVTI

**Q.** Which Potency does the source give for `Cc1cnc(NC(=O)Cn2cnc3c2c(=O)n(C)c(=O)n3C)s1` here?
**A.** inconclusive: 3.55 µM [inhibitor, full curve, poor fit]

**Q.** How did the “activity change, negative = inhibition” value turn out when `O=C(CC1SC(=Nc2ccc(OC(F)F)cc2)N(CCN2CCOCC2)C1=O)Nc1ccc(F)cc1F` (stereo not given) was run?
**A.** inactive: -10.6%

**Q.** `CC(O)(c1ccc(F)c(F)c1)c1nc(-c2ccc(Cl)cc2)cs1` (stereo not given) was tested. Which Potency did it give?
**A.** inconclusive: 44.7 µM [inhibitor, partial curve, poor fit]

**Q.** For `CCCCCn1nc(C(=O)Nc2nc(C)c(C(C)=O)s2)c2ccccc2c1=O`, which Potency is on record?
**A.** inconclusive: 56.2 µM [inhibitor, single point]

**Q.** For `CCC(C(=O)NC(C)(C)CC)c1ccccc1` (stereo not given), which Potency is on record?
**A.** inconclusive: 89.1 µM [inhibitor, single point]

**Q.** How did the Potency turn out when `COCCNC(=O)c1cc2c(c(-c3cccc(C#CC(C)(C)O)c3)n1)[C@@H](CCO)N(S(=O)C(C)(C)C)C2` (stereo not given in full) was run?
**A.** inconclusive: 44.7 µM [inhibitor, partial curve, poor fit]

**Q.** For `CN1CCCCCCN(C(=O)C2CCCCC2)[C@H]2CCC[C@H]2C1=O`, which “activity change, negative = inhibition” value is on record?
**A.** inactive: 18.1%

**Q.** Which Potency does the source give for `NS(=O)(=O)c1ccc(CCNCC(=O)NCc2ccccc2Cl)cc1` here?
**A.** inconclusive: 2 µM [inhibitor, full curve, poor fit]

**Q.** `CCN(CC)c1ccc(NC(=O)CCCOc2cccc(C)c2)cc1` was tested. Which Potency did it give?
**A.** active: 39.8 µM

**Q.** `O=c1[nH]c2ccccc2n1C1=CCCC1` was tested. Which “activity change, negative = inhibition” value did it give?
**A.** inactive: 0%

**Q.** Which Potency does the source give for `N#CC1=C(N)OC2=C(C(=O)CCC2)C1c1ccc(OC(=O)N2CCOCC2)cc1` (stereo not given) here?
**A.** inconclusive: 112 µM [inhibitor, single point]

**Q.** For `Cc1nc(-c2ccc(O)c(O)c2)cs1`, which Potency is on record?
**A.** active: 7.08 µM

**Q.** With `CC(NC(=O)c1nn(C)c(=O)c2ccccc12)c1ccc(-c2ccccc2)cc1` (stereo not given) as the compound, how does the “activity change, negative = inhibition” value read?
**A.** inactive: 0.0309%

**Q.** How did the Potency turn out when `O=C(O)CNS(=O)(=O)c1c(Cl)cccc1Cl` was run?
**A.** inconclusive: 44.7 µM [inhibitor, partial curve]

**Q.** `CC(=O)NC(c1cc(Cl)c2ccccc2c1O)C(C)C` (stereo not given) was tested. Which “activity change, negative = inhibition” value did it give?
**A.** inactive: -3.48%

**Q.** With `O=C(CSc1ccccc1C(=O)O)Nc1ccc2c(c1)OCCCO2` as the compound, how does the Potency read?
**A.** inconclusive: 63.1 µM [inhibitor, partial curve, poor fit]

**Q.** How did the Potency turn out when `COc1ccc(OC)c(S(=O)(=O)Nc2ccc3c(c2)C(=O)OC3)c1` was run?
**A.** inconclusive: 10 µM [inhibitor, full curve, poor fit]

**Q.** For `CCOC(=O)c1ccc(NC(=O)COC(=O)c2cc(C)nc3ccccc23)cc1`, which “activity change, negative = inhibition” value is on record?
**A.** inactive: -5.56%

**Q.** How did the Potency turn out when `COc1ccc(C(=O)NC(=S)N(C)C2CCCCC2)cc1` was run?
**A.** inconclusive: 39.8 µM [inhibitor, single point]

**Q.** `C=CC[C@@H](CC(=O)N[C@H](CO)Cc1ccccc1)C(=O)N[C@@H](COC(=O)[C@@H](CC=C)CC(=O)OC(C)(C)C)Cc1c[nH]c2ccccc12` was tested. Which Potency did it give?
**A.** inconclusive: 89.1 µM [inhibitor, partial curve, poor fit]

**Q.** Which Potency does the source give for `COCC(=O)NC[C@H]1O[C@H](Cc2cc(CN3CCNCC3)on2)CC[C@@H]1O` here?
**A.** inconclusive: 22.4 µM [inhibitor, full curve, poor fit]

**Q.** For `O=C(CCCNc1nc(Cl)nc2nc[nH]c12)NC1CC1`, which “activity change, negative = inhibition” value is on record?
**A.** inactive: 5.6%

**Q.** For `O=C(c1ccccc1)c1nc2c(n1O)CCCCC2`, which “activity change, negative = inhibition” value is on record?
**A.** inactive: -18.3%

**Q.** How did the Potency turn out when `Cc1ccc(NC(=O)CSc2n[nH]c(-c3cccnc3)n2)c(Br)c1` was run?
**A.** inconclusive: 0.224 µM [inhibitor, full curve, poor fit]

**Q.** `Cc1c(C(=O)NCc2cccnc2)oc2ccc(S(=O)(=O)N3CCC4(CC3)OCCO4)cc12` was tested. Which “activity change, negative = inhibition” value did it give?
**A.** inactive: 0.228%

From PubChem BioAssay AID1671190 (National Center for Advancing Translational Sciences (NCATS), 2021)
